From ChEMBL document CHEMBL1145365, “The discovery of long acting beta2-adrenoreceptor agonists” (Bioorg Med Chem Lett, 2007)

Experiments:
[1] = Distribution coefficient, log D of the compound; conditions: octanol/water
in vitro = conditions: human, Caco-2, pH 7.4

C[C@H](Cc1cccc(CC(=O)NCc2cc(C(F)(F)F)ccc2F)c1)NC[C@H](O)c1ccc(O)c(CO)c1 showed a logD [1] of 2.2 and a Papp A→B at 25 µM (in vitro) of 2 ×10⁻⁶ cm/s.

With C[C@H](Cc1cccc(CC(=O)NCc2c(F)cccc2Cl)c1)NC[C@H](O)c1ccc(O)c(CO)c1 the logD [1] was 1.5.
